Measurements reported in PubChem BioAssay AID686938 (Drosophila RNAi Screening Center, 2013).

Test: 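Knock-downs reducing store-operated calcium influx in Drosophila cells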 (primary screen)
Cell system: Drosophila S2R+ cells
Reagent: long dsRNA against Drosophila genes, about 0.25 µg dsRNA per well, roughly 10,000 cells
Duration: 5 days of knock-down before the calcium assay
Conditions: thapsigargin (SERCA pump blocker) to empty calcium stores; entry signal taken 4 min after adding it
Measurement: 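Duplicate raw fluo-4 intensities per well from a plate reader, at rest and four minutes after thapsigargin emptied calcium stores; entry-to-rest ratio filled for only some wells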
Direction: calcium entry signal: higher = stronger calcium signal after store depletion; entry to resting ratio: higher = more calcium entry relative to resting level; resting calcium signal: higher = higher resting calcium signal
Active means: 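Hit if the duplicate-averaged plate z-score for entry over resting signal is under −3; wells with weak total dye signal (Fmax z < −2) or more than 5 off-targets removed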
Meaning of the calls: active = strongly reduced calcium entry; inactive = no strong reduction
In all, the deposit lists about 23,000 reagents; below is an unselected part of those that have a named target and a result. Of all reagents, 75 (0.33%) are marked active. 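Raw plate signals without normalisation; calls rest on plate z-scores that were not deposited; ratio present for only 364 wells.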 A plus sign joins genes that one reagent is predicted to hit. No sequences are given here. Not stated in the record: the dose of the treatment.

Gene | dsRNA | calcium entry signal, replicate 1 (fluorescence units) | calcium entry signal, replicate 2 (fluorescence units) | entry to resting ratio | resting calcium signal, replicate 1 (fluorescence units) | resting calcium signal, replicate 2 (fluorescence units) | activity call
CG13856 | DRSC14706 | 3.71e7 | 4.54e7 | – | 4.65e7 | 1.96e7 | inactive
CG12376 | DRSC06144 | 4.98e7 | 4.00e7 | – | 1.94e7 | 1.84e7 | inactive
CG31259 | DRSC14366 | 4.18e7 | 3.29e7 | – | 2.13e7 | 1.63e7 | inactive
CG2818 | DRSC00540 | 5.25e7 | – | – | 2.71e7 | – | inactive
CG1648 | DRSC06610 | 3.09e7 | 4.38e7 | – | 1.37e7 | 2.10e7 | inactive
CG31775 + CG42586 | DRSC22289 | 3.06e7 | 3.54e7 | – | 1.49e7 | 1.80e7 | inactive
CG31775 + CG42586 | DRSC23266 | 7.55e7 | 2.24e7 | – | 3.20e7 | 1.03e7 | inactive
Arf6 | DRSC05921 | 4.59e7 | 5.97e7 | – | 2.84e7 | 3.36e7 | inactive
CG17707 | DRSC20650 | 4.56e7 | 3.91e7 | – | 2.33e7 | 1.77e7 | inactive
mon2 | DRSC03112 | 2.80e7 | 4.09e7 | – | 1.45e7 | 1.87e7 | inactive
RpS20 | DRSC16836 | 9.41e6 | 1.53e7 | – | 7.08e6 | 8.98e6 | inactive
Patsas | DRSC02975 | 5.22e7 | – | – | 2.56e7 | – | inactive
wus | DRSC20278 | 2.62e7 | 2.40e7 | – | 1.22e7 | 1.18e7 | inactive
plx | DRSC12260 | 4.57e7 | 3.43e7 | – | 2.17e7 | 1.67e7 | inactive
plx | DRSC12385 | 4.30e7 | 4.51e7 | – | 2.19e7 | 2.28e7 | inactive
plx | DRSC22683 | 2.56e7 | 2.77e7 | – | 1.38e7 | 1.12e7 | inactive
CG12983 | DRSC11692 | 3.23e7 | 5.65e7 | – | 1.65e7 | 2.22e7 | inactive
CR31824 | DRSC01517 | 3.15e7 | 4.47e7 | – | 1.83e7 | 2.07e7 | inactive
CG6345 | DRSC16024 | 2.97e7 | 3.39e7 | – | 1.42e7 | 1.76e7 | inactive
CG4313 | DRSC18514 | 3.12e7 | 3.74e7 | – | 1.43e7 | 1.67e7 | inactive
Fcp3C | DRSC18665 | 4.17e7 | 5.68e7 | 2 | 2.05e7 | 2.34e7 | inactive
Gr98d | DRSC14571 | 1.91e7 | 3.23e7 | – | 1.14e7 | 1.46e7 | inactive
trh | DRSC08355 | 4.05e7 | 4.39e7 | – | 2.20e7 | 2.06e7 | inactive
trh | DRSC08739 | 4.21e7 | 4.36e7 | – | 2.15e7 | 2.04e7 | inactive
Spag1 | DRSC15331 | 2.82e7 | 5.05e7 | – | 1.47e7 | 2.18e7 | inactive
CG33299 | DRSC01085 | 1.67e7 | 3.77e7 | – | 1.38e7 | 1.59e7 | inactive
Plc21C | DRSC00773 | 4.16e7 | – | – | 1.67e7 | – | inactive
Stoml2 | DRSC04326 | 4.15e7 | – | – | 1.85e7 | – | inactive
Wdr33 | DRSC12162 | 2.42e7 | 2.99e7 | – | 1.09e7 | 1.44e7 | inactive
Ser6 | DRSC20574 | 3.69e7 | 4.22e7 | – | 2.00e7 | 1.96e7 | inactive
TfIIA-S-2 | DRSC17791 | 4.18e7 | 6.73e7 | 2.1 | 2.00e7 | 2.51e7 | inactive
dpp | DRSC00118 | 2.63e7 | 3.42e7 | – | 1.47e7 | 1.50e7 | inactive
dpp | DRSC00121 | 3.19e7 | 3.63e7 | – | 1.64e7 | 1.61e7 | inactive
dpp | DRSC00813 | 3.93e7 | 4.41e7 | – | 1.77e7 | 2.00e7 | inactive
Ssdp | DRSC16211 | 4.22e7 | 4.55e7 | – | 5.27e7 | 1.88e7 | inactive
CG8677 + CG31626 | DRSC01838 | 1.75e7 | 3.89e7 | – | 8.76e6 | 1.86e7 | inactive
r | DRSC19813 | 2.25e7 | 3.51e7 | – | 1.19e7 | 1.57e7 | inactive
r | DRSC19814 | 2.21e7 | 2.70e7 | – | 1.22e7 | 1.39e7 | inactive
Pcp | DRSC03395 | 3.57e7 | 3.74e7 | – | 1.78e7 | 1.82e7 | inactive
Trm7-34 | DRSC16171 | 3.11e7 | 3.49e7 | – | 7.56e7 | 1.51e7 | inactive
